# Measured values from PubChem BioAssay AID445 (National Center for Advancing Translational Sciences (NCATS), 2006).
# The list shows a part of the results. These are further read-outs of the screen, such as a control signal, another cell line or another target. No call is given for them. Compounds called inactive in the main read-out are mostly missing here. Words in brackets tell the shape of the fitted curve; partial curves, single points and poor fits give uncertain potencies.
# Test: IkB Signaling
# Details: ABC-DLBCL IkBa-CBG/CBR dual luciferase ratio (green luciferase fused to IkBa over red control in OCI-Ly3 lymphoma cells), 4 h
# Outline: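 Curves were fitted separately to fusion (green), unfused (red) and ratio luminescence, then classed by r2, magnitude and activity. Cells: OCI-Ly3, 4 h compound plus doxycycline at 37C; 10 uM MG-132 defined full response.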
# [1] = measured here: control luc red channel unless noted
compound,measurement,setting,value
Cc1ccc(NC(=O)CSc2ncccc2C(=O)Oc2ccccc2Cl)cc1Cl,AC50,[1],"0.0126 µM [falling, full curve]"
COc1ccc2[nH]cc(CCNC(=O)Nc3c(C)cccc3C)c2c1,AC50,[1],"3.98 µM [falling, partial curve, poor fit]"
Cc1cc(NC(=O)CN(C)S(=O)(=O)c2ccc3c(c2)CCCC(=O)N3)ccc1Br,AC50,[1],"39.8 µM [falling, partial curve, poor fit]"
COc1cc(-c2nc(Cn3nnc(C(=O)Nc4ccccc4C)c3C)c(C)o2)cc(OC)c1OC,AC50,[1],"7.94 µM [falling, partial curve]"
Cc1ccc(-c2cc(C(=O)N3CCN(c4ncccn4)CC3)c3ccccc3n2)cc1,AC50,[1],"10 µM [falling, partial curve]"
N=C(CC(=O)Nc1ccccn1)c1ccccc1,AC50,[1],"3.16 µM [falling, partial curve]"
COc1ccc(-c2n[nH]c3c2C(c2ccc(Cl)cc2Cl)NC3=O)cc1 (centres undefined),AC50,[1],"25.1 µM [falling, partial curve]"
CCN(CCCNC(=O)c1ccc(Sc2ccc(C)cc2)c(NC(C)=O)c1)c1cccc(C)c1,AC50,[1],"25.1 µM [falling, partial curve]"
Cc1ccc2oc(-c3ccc(C)c(NC(=O)c4ccc5c(c4)OCCO5)c3)nc2c1,AC50,[1],"12.6 µM [falling, partial curve]"
Cc1ccc(F)cc1NC(=O)CCc1c(C)nn(-c2ccc(N3CCCCC3)nn2)c1C,AC50,[1],"15.8 µM [falling, partial curve]"
CCCC1=C(C(=O)OCC)C(c2cc(Cl)cc(OC)c2OCC(=O)OCC)NC(=O)N1 (centres undefined),AC50,[1],"15.8 µM [falling, partial curve]"
CCOC(=O)c1ccc(-c2ccc(/C=C(\C#N)C(=O)Nc3c(C)cccc3Cl)o2)cc1,AC50,[1],"15.8 µM [falling, partial curve]"
O=S(=O)(NCc1ccc(F)cc1)c1ccc2[nH]c3c(c2c1)CCCCC3,AC50,[1],"25.1 µM [falling, partial curve]"
CCOC(=O)c1nc(Nc2ccc(OC)cc2)c2ccccc2n1,AC50,[1],"39.8 µM [falling, single point]"
Cc1ccccc1Nc1c(-c2cccc(O)c2)nc2ccc(Br)cn12,AC50,[1],"39.8 µM [falling, single point]"
Cc1ccc(-c2nn(-c3cccc([N+](=O)[O-])c3)c3c2cnc2ccc(F)cc23)cc1,AC50,[1],"20 µM [rising, partial curve]"
Cc1cccc(Nc2nc(Nc3cccc(C)c3)nc(N3CCOCC3)n2)c1,AC50,[1],"12.6 µM [falling, partial curve]"
COc1cc(OC)c(NC(=O)CSC2=Nc3ccccc3N=C(c3ccc(F)cc3)C2)cc1Cl,AC50,[1],"1 µM [falling, full curve, poor fit]"
CCOc1ccc(CNC(=O)c2ccc3c(c2)sc2nc(-c4ccc(OC)cc4)cn23)cc1,AC50,[1],"25.1 µM [falling, single point]"
Cc1sc(C2C(C#N)=C(N)N(c3cccc(Cl)c3)C3=C2C(=O)CCC3)cc1CN1CCOCC1 (centres undefined),AC50,[1],"25.1 µM [falling, single point]"
C=CCn1c(NC(=O)c2ccccc2Cl)c(C#N)c2nc3ccccc3nc21,AC50,[1],"12.6 µM [falling, partial curve]"
O=C(Nc1ccc2sccc2c1)c1ccc(Cl)s1,AC50,[1],"7.94 µM [falling, partial curve]"
O=C(CCC1N=C2c3ccccc3N=C(SCc3ccccc3Cl)N2C1=O)NCc1cccs1 (centres undefined),AC50,[1],"39.8 µM [falling, single point]"
CC(C)Cc1ccc(S(=O)(=O)Nc2ccc3[nH]c(=O)[nH]c3c2)cc1,AC50,[1],"25.1 µM [falling, single point]"
Cc1cccc(-c2nnc(SCc3nc4ccccc4[nH]3)n2Cc2ccco2)c1,AC50,[1],"12.6 µM [falling, partial curve]"
CCOc1ccc(OCC)c(NC(=O)c2cnc3c(-c4ccccc4)c(C)nn3c2C)c1,AC50,[1],"12.6 µM [falling, partial curve]"
Cc1cc(NC(=O)CSc2nc(-c3cccs3)cc(C(F)(F)F)n2)no1,AC50,[1],"0.501 µM [rising, full curve]"
O=c1c2oc3ccccc3c2n(Cc2cccc(Cl)c2)c(=O)n1Cc1ccc2c(c1)OCO2,AC50,[1],"2 µM [falling, partial curve]"
COc1ccccc1OCC(=O)NCC1(N2CCOCC2)CCCCC1,AC50,[1],"25.1 µM [falling, single point]"
O=C(NCc1cccc(Cl)c1)c1ccc(CS(=O)Cc2ccccc2Cl)o1 (centres undefined),AC50,[1],"25.1 µM [falling, single point]"
Cc1cc(C2=CC(C)(c3cc(C)oc3C)Nc3nc(C(F)(F)F)nn32)c(C)o1 (centres undefined),AC50,measured here: IkB-luc green channel,"31.6 µM [rising, partial curve]"
same,AC50,measured here: control luc red channel,"25.1 µM [falling, partial curve]"
CC1CCN(c2ccc(-c3cccc(NS(=O)(=O)c4ccc(Cl)s4)c3)nn2)CC1,AC50,[1],"10 µM [falling, partial curve]"
Cn1c(CN2CCCC2)nc2cc(NC(=O)Nc3ccccc3)ccc21,AC50,[1],"15.8 µM [falling, partial curve]"
OC1(c2cccc(C(F)(F)F)c2)CCN(c2ncnc3c2[nH]c2ccc(F)cc23)CC1,AC50,[1],"7.94 µM [falling, full curve]"
c1ccc(-c2nc(-n3ccnc3)nc(-n3ccnc3)n2)cc1,AC50,[1],"20 µM [falling, partial curve]"
COc1ccc(C2C(C#N)=C(N)Oc3n[nH]c(C)c32)cc1CN1CCN(c2ccc(F)cc2)CC1 (centres undefined),AC50,[1],"6.31 µM [falling, partial curve]"
CN(Cc1cccs1)c1ncnc2sccc12,AC50,[1],"25.1 µM [falling, single point]"
COc1cccc(CCNC(=O)c2cnc3sc(N4CCCC4)nn3c2=O)c1,AC50,[1],"39.8 µM [falling, single point]"
COc1ccc(Cl)cc1NC(=O)N1CCC2(CC1)Oc1ccccc1C(=O)N2Cc1ccc(F)cc1,AC50,[1],"25.1 µM [falling, single point]"
CCOC(=O)C1=C(CN(CC)Cc2ccccc2)NC(=O)NC1c1ccc(Cl)cc1 (centres undefined),AC50,[1],"20 µM [falling, partial curve]"
CC1CCc2c(sc3nnn(CC(=O)Nc4ccccc4Cl)c(=O)c23)C1 (centres undefined),AC50,[1],"20 µM [falling, partial curve]"
CCCCNC(=O)c1ccc(-c2nc(CN3CCc4ccccc43)c(C)o2)cc1,AC50,[1],"3.16 µM [rising, partial curve]"
O=C(NCc1cccs1)C1CC(c2ccccc2O)=NO1 (centres undefined),AC50,[1],"7.94 µM [falling, partial curve]"
Cc1ccc(Nc2c3c(nc4ccccc24)CCC3)cc1F,AC50,[1],"15.8 µM [falling, partial curve]"
COc1cc(C(=O)Nc2nc3ccc(S(=O)(=O)N4CCOCC4)cc3s2)cc(OC)c1OC,AC50,[1],"12.6 µM [falling, partial curve]"
NC(=O)c1ccccc1NC(=O)CCc1ccccc1,AC50,[1],"2.51 µM [falling, full curve]"
O=C(Nc1nccs1)C1CCN(S(=O)(=O)c2ccc3c(c2)OCCCO3)CC1,AC50,[1],"25.1 µM [falling, partial curve]"
Cc1ccc(NC(=O)CCNS(=O)(=O)c2cccs2)cc1F,AC50,[1],"3.16 µM [rising, single point]"
COc1ccccc1N(CC(=O)NCCSc1ccccc1)S(=O)(=O)c1ccc(C)cc1,AC50,[1],"15.8 µM [falling, partial curve]"
O=C1NCCCC2c3cc(O)c4ccccc4c3OC12N1CCCCC1 (centres undefined),AC50,[1],"15.8 µM [falling, partial curve]"
CCOc1cc(C(=O)N2CC(=O)Nc3ccc(F)cc3C2c2ccccc2)cc(OCC)c1OCC (centres undefined),AC50,[1],"7.94 µM [falling, full curve]"
CC(C)OCCCNC(=O)Cn1c(-c2cccs2)cc2cc(F)ccc21,AC50,[1],"25.1 µM [falling, partial curve, poor fit]"
COc1ccc(NC(=O)Cn2nc(C)c3c(C)n(-c4ccccc4)nc3c2=O)cc1OC,AC50,[1],"31.6 µM [falling, single point]"
CCOc1cc(-c2cc(C(=O)O)c3c(-c4ccccc4)[nH]nc3n2)ccc1O,AC50,[1],"1.26 µM [falling, full curve]"
COc1ccc(S(=O)(=O)NCC(c2ccco2)S(=O)(=O)c2cccs2)cc1OC (centres undefined),AC50,[1],"31.6 µM [falling, single point]"
CCOc1ccc(-c2c(C)nn3c(C)c(C(=O)NC(C)c4ccccc4)cnc23)cc1OCC (centres undefined),AC50,[1],"39.8 µM [falling, single point]"
CCCCC(=O)Nc1cc(-c2cn3cccnc3n2)ccc1C,AC50,[1],"0.794 µM [rising, single point]"
CCn1c(SCc2ccc(OC)cc2)nnc1-c1ccncc1,AC50,[1],"20 µM [falling, partial curve]"
O=C(CCSCc1ccccc1Cl)NCCc1ccccc1,AC50,[1],"39.8 µM [falling, single point]"
O=C(NCc1ccccc1)c1n[nH]nc1-c1ccccc1O,AC50,[1],"3.98 µM [falling, full curve]"
Cc1ccc(OCCSc2nc3ccccc3n2CC(=O)N2CCOCC2)cc1C,AC50,[1],"1.26 µM [rising, full curve]"
CCOC(=O)c1cc2c(=O)n3ccccc3nc2n(CC2CCCO2)c1=NC(=O)c1ccc(OCC)cc1 (centres undefined),AC50,[1],"7.94 µM [falling, partial curve]"
C=C1CC[C@H](O)C/C1=C/C=C1\CCC[C@]2(C)[C@@H]([C@H](C)CCCC(C)C)CC[C@@H]12,AC50,[1],"31.6 µM [falling, partial curve]"

# Exported with bars between the fields: entries from further up
compound | measurement | setting | value
COc1cc(-c2nc(Cn3nnc(C(=O)Nc4ccccc4C)c3C)c(C)o2)cc(OC)c1OC | AC50 | [1] | 7.94 µM [falling, partial curve]
Cc1ccc(-c2cc(C(=O)N3CCN(c4ncccn4)CC3)c3ccccc3n2)cc1 | AC50 | [1] | 10 µM [falling, partial curve]
N=C(CC(=O)Nc1ccccn1)c1ccccc1 | AC50 | [1] | 3.16 µM [falling, partial curve]
COc1ccc(-c2n[nH]c3c2C(c2ccc(Cl)cc2Cl)NC3=O)cc1 (centres undefined) | AC50 | [1] | 25.1 µM [falling, partial curve]
CCN(CCCNC(=O)c1ccc(Sc2ccc(C)cc2)c(NC(C)=O)c1)c1cccc(C)c1 | AC50 | [1] | 25.1 µM [falling, partial curve]
Cc1ccc2oc(-c3ccc(C)c(NC(=O)c4ccc5c(c4)OCCO5)c3)nc2c1 | AC50 | [1] | 12.6 µM [falling, partial curve]
Cc1ccc(F)cc1NC(=O)CCc1c(C)nn(-c2ccc(N3CCCCC3)nn2)c1C | AC50 | [1] | 15.8 µM [falling, partial curve]
CCCC1=C(C(=O)OCC)C(c2cc(Cl)cc(OC)c2OCC(=O)OCC)NC(=O)N1 (centres undefined) | AC50 | [1] | 15.8 µM [falling, partial curve]
CCOC(=O)c1ccc(-c2ccc(/C=C(\C#N)C(=O)Nc3c(C)cccc3Cl)o2)cc1 | AC50 | [1] | 15.8 µM [falling, partial curve]
O=S(=O)(NCc1ccc(F)cc1)c1ccc2[nH]c3c(c2c1)CCCCC3 | AC50 | [1] | 25.1 µM [falling, partial curve]
CCOC(=O)c1nc(Nc2ccc(OC)cc2)c2ccccc2n1 | AC50 | [1] | 39.8 µM [falling, single point]
Cc1ccccc1Nc1c(-c2cccc(O)c2)nc2ccc(Br)cn12 | AC50 | [1] | 39.8 µM [falling, single point]
Cc1ccc(-c2nn(-c3cccc([N+](=O)[O-])c3)c3c2cnc2ccc(F)cc23)cc1 | AC50 | [1] | 20 µM [rising, partial curve]
Cc1cccc(Nc2nc(Nc3cccc(C)c3)nc(N3CCOCC3)n2)c1 | AC50 | [1] | 12.6 µM [falling, partial curve]
COc1cc(OC)c(NC(=O)CSC2=Nc3ccccc3N=C(c3ccc(F)cc3)C2)cc1Cl | AC50 | [1] | 1 µM [falling, full curve, poor fit]
CCOc1ccc(CNC(=O)c2ccc3c(c2)sc2nc(-c4ccc(OC)cc4)cn23)cc1 | AC50 | [1] | 25.1 µM [falling, single point]
Cc1sc(C2C(C#N)=C(N)N(c3cccc(Cl)c3)C3=C2C(=O)CCC3)cc1CN1CCOCC1 (centres undefined) | AC50 | [1] | 25.1 µM [falling, single point]
C=CCn1c(NC(=O)c2ccccc2Cl)c(C#N)c2nc3ccccc3nc21 | AC50 | [1] | 12.6 µM [falling, partial curve]
